# Reference: the supplement of paper PMC7666118
# Chains of the proteins cited; added tags and fusions are not shown. Lines headed by an entry give the natural chain unless they say otherwise; changes in a name come on top.
# UniProt O96028: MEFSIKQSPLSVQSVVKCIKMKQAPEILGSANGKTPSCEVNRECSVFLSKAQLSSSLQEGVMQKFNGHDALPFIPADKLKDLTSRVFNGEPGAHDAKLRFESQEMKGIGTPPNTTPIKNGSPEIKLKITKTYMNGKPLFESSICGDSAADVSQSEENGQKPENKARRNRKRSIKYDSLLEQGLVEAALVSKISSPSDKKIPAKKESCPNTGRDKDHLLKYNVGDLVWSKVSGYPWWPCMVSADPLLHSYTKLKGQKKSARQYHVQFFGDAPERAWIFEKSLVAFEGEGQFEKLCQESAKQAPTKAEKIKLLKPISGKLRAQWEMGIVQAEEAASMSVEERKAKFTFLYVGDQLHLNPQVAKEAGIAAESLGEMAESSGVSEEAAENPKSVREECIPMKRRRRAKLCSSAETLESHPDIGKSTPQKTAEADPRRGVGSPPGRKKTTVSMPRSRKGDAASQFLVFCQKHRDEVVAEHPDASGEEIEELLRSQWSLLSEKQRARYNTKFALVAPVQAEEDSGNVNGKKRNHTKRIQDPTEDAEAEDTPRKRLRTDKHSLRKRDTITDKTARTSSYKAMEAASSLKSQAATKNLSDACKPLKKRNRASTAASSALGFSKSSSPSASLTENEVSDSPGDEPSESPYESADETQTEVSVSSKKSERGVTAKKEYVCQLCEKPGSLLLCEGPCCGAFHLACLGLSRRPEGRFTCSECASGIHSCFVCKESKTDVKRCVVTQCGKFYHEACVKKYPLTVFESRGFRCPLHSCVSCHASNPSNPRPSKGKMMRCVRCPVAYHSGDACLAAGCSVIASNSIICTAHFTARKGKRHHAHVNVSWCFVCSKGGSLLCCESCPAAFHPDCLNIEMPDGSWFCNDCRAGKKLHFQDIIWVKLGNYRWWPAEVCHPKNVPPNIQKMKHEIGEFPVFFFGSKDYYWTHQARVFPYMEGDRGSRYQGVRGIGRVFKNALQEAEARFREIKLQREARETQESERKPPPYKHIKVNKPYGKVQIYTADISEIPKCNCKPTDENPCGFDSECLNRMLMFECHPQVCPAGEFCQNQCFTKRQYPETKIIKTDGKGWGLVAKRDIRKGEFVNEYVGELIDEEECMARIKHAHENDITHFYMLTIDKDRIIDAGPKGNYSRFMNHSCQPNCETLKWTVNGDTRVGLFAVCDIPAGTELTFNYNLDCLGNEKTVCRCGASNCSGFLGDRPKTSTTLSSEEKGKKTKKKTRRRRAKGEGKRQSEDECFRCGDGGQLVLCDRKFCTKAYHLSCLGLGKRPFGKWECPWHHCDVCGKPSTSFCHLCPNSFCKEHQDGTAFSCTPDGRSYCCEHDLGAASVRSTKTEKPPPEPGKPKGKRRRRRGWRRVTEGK
# UniProt P31153, whole entry, looked up: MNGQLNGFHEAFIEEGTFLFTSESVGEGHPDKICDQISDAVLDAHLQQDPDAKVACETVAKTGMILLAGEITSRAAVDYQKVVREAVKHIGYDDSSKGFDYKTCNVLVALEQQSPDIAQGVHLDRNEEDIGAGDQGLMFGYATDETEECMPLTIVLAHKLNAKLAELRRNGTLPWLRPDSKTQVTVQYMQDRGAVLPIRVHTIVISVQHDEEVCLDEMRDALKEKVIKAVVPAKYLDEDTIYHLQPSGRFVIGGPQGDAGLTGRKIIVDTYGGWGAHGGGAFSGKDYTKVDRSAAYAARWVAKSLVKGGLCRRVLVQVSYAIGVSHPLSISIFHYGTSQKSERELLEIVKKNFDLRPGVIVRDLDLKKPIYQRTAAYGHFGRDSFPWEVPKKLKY
# UniProt P33993, whole entry: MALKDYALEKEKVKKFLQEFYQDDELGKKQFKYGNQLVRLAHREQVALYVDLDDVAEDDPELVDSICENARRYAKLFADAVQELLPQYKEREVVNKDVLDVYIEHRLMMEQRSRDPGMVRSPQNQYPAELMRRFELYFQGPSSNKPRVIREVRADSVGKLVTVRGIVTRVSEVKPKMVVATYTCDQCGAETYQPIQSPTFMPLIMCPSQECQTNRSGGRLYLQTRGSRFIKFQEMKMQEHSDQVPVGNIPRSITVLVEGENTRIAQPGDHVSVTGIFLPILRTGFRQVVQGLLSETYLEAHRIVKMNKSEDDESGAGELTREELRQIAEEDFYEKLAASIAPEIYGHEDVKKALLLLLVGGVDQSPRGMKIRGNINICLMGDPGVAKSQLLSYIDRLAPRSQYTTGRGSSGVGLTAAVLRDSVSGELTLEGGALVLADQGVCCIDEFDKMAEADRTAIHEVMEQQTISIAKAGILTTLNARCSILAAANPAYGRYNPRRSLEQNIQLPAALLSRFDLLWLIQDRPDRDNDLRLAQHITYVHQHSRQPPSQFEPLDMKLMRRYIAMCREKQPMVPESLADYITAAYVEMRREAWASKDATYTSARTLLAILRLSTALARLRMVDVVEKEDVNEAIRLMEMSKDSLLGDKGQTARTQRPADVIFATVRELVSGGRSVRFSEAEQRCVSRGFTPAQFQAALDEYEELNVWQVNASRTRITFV
# UniProt Q9BTT4: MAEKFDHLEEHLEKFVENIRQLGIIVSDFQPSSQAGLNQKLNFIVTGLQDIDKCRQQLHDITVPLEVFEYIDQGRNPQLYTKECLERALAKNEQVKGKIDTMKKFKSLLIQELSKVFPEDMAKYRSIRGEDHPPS
# UniProt Q9UHA4, whole entry: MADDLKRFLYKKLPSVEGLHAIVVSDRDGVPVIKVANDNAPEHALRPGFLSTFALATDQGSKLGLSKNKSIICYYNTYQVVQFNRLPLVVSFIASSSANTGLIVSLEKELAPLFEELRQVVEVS
# UniProt Q8IW41: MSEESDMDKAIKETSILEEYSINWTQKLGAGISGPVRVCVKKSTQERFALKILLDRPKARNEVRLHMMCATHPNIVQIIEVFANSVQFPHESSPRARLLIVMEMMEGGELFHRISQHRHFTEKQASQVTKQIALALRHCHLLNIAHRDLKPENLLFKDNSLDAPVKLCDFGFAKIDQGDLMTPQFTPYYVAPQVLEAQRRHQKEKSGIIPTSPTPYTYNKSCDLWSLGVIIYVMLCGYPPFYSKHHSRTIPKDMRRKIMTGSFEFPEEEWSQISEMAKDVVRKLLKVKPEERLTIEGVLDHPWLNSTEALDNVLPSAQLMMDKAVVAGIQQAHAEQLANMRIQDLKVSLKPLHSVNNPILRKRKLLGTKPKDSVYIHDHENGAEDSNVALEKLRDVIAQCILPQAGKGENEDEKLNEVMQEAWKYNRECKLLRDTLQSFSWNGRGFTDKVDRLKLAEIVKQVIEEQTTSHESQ
# UniProt Q9H1U9: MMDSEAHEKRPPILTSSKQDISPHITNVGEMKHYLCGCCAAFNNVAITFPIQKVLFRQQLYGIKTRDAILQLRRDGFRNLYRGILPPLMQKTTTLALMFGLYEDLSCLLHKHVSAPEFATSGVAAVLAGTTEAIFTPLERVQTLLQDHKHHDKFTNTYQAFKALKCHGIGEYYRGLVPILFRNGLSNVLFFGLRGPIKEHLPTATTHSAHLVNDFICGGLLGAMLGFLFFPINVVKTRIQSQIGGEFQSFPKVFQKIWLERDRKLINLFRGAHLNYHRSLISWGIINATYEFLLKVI
# UniProt Q9NTJ4: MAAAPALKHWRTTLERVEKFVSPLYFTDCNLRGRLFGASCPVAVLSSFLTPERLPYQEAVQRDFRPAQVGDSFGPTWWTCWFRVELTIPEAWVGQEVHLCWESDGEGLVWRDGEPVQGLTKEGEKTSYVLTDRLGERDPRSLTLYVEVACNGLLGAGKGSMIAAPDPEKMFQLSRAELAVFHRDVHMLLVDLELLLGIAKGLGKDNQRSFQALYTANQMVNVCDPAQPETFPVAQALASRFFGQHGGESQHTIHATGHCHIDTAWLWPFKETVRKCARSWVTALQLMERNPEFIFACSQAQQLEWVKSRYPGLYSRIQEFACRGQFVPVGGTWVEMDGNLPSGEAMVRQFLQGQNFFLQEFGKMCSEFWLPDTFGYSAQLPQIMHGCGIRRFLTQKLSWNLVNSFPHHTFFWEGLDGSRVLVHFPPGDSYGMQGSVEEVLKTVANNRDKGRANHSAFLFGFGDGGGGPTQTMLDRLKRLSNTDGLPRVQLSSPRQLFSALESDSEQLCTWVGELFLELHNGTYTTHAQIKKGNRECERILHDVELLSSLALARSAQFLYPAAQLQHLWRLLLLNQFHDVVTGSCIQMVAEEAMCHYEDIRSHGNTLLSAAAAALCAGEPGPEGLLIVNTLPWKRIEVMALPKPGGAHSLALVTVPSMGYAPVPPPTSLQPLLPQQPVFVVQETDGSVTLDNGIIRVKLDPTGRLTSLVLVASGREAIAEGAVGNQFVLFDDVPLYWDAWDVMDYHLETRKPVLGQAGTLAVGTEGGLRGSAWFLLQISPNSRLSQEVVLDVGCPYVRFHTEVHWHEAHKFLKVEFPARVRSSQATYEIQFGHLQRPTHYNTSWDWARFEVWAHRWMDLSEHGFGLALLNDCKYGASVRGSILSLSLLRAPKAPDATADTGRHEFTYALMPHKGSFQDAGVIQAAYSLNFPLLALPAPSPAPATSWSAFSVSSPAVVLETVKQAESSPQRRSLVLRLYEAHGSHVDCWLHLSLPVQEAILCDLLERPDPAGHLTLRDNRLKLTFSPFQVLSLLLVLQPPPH
# UniProt Q14703: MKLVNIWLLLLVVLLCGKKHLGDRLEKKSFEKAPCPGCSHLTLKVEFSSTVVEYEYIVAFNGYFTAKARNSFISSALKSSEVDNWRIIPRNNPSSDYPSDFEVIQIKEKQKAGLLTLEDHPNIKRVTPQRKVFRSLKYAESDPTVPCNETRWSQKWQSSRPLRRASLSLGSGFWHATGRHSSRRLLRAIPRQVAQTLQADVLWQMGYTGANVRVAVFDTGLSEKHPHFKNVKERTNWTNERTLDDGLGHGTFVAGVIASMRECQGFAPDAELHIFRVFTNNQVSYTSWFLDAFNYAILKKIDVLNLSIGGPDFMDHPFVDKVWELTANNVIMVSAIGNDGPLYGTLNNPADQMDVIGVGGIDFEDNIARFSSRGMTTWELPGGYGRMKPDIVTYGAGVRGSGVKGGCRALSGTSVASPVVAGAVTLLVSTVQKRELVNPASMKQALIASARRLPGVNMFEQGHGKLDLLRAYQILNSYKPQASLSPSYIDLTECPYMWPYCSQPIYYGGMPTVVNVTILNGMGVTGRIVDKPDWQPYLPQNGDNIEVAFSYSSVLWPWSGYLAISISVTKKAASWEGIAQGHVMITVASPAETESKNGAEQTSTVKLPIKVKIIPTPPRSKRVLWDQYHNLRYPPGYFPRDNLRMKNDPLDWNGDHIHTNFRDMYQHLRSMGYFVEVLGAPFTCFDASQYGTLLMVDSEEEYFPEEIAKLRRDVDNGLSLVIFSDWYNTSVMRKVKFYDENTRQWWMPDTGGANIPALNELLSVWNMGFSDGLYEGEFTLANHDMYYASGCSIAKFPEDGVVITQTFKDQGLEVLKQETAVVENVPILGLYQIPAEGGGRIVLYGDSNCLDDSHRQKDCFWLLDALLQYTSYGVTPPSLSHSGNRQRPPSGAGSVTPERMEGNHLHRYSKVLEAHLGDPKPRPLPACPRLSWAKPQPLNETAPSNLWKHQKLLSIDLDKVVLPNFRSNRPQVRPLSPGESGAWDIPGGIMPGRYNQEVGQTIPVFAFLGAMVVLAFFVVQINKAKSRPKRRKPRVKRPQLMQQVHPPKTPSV
# UniProt P43243: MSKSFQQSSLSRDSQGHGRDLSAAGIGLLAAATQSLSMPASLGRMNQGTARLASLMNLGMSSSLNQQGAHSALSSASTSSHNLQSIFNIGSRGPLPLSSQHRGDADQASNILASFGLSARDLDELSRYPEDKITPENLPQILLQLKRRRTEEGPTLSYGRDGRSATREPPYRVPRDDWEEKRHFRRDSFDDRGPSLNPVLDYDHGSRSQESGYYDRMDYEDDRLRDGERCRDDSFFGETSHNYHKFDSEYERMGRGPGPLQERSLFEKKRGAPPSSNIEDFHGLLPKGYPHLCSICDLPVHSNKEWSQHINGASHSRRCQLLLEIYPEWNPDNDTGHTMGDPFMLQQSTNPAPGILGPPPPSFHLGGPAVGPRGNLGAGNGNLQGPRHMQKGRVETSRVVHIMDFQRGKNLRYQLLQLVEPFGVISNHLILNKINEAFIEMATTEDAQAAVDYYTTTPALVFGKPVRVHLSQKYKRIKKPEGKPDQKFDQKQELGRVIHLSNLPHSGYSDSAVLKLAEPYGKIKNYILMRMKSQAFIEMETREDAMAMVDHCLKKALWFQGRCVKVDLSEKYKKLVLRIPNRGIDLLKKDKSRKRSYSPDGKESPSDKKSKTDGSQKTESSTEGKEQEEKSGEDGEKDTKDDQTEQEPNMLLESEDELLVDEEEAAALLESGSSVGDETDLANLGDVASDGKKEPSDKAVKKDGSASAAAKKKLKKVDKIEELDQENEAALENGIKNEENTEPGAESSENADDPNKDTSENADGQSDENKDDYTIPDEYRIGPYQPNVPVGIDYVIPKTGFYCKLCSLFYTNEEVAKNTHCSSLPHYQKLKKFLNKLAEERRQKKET
# Some of the results follow.
# Compound: COc1ccc(Cn2ccc3ccc(C(=O)NO)cc32)cc1
# Experiment: dose-dependent thermal stabilisation call (2D-TPP, DLPTP, 10% FDR) (binary (1 = stabilised)); higher = stabilised by the compound
# Details: system: HL-60 intact cells; concentration range 0.04-10 µM
row,Target,dose-dependent thermal stabilisation call
1,MNT (UniProt Q99583),inactive: 0
2,MGAT2 (UniProt Q10469),inactive: 0
3,MELK (UniProt Q14680),inactive: 0
4,MRPS18A (UniProt Q9NVS2),inactive: 0
5,MBD1 (UniProt Q9UIS9),inactive: 0
6,METTL3 (UniProt Q86U44),inactive: 0
7,MON1A (UniProt Q86VX9),inactive: 0
8,MCCC2 (UniProt Q9HCC0),inactive: 0
9,MRPL45 (UniProt Q9BRJ2),inactive: 0
10,MRPS14 (UniProt O60783),inactive: 0
11,MRPS10 (UniProt P82664),inactive: 0
12,MAP2K2 (UniProt P36507),inactive: 0
13,MFSD9 (UniProt Q8NBP5),inactive: 0
14,MMSET (UniProt O96028),inactive: 0
15,MAT2A (UniProt P31153),inactive: 0
16,MFSD1 (UniProt Q9H3U5),inactive: 0
17,MEMO1 (UniProt Q9Y316),inactive: 0
18,MOSC2 (UniProt Q969Z3),inactive: 0
19,MAP3K7IP1 (UniProt Q15750),inactive: 0

row,Target,dose-dependent thermal stabilisation call
1,MCM7 (UniProt P33993),inactive: 0
2,MOV10 (UniProt Q9HCE1),inactive: 0
3,MED20 (UniProt Q9H944),inactive: 0
4,MED10 (UniProt Q9BTT4),inactive: 0
5,MAPKSP1 (UniProt Q9UHA4),inactive: 0
6,MCRS1 (UniProt Q96EZ8),inactive: 0
7,MAPKAPK5 (UniProt Q8IW41),inactive: 0
8,MCART1 (UniProt Q9H1U9),inactive: 0
9,MLC1 (UniProt Q15049),inactive: 0
10,MAPKAPK3 (UniProt Q16644),inactive: 0
11,MLL2,inactive: 0
12,MAN2C1 (UniProt Q9NTJ4),inactive: 0
13,MBTPS1 (UniProt Q14703),inactive: 0
14,MARCH6 (UniProt O60337),inactive: 0
15,MATR3 (UniProt P43243),inactive: 0
16,MBNL1 (UniProt Q9NR56),inactive: 0
17,MRPL18 (UniProt Q9H0U6),inactive: 0
18,MRCL3,inactive: 0

# An excerpt of these results, with tabs:
row	Target	dose-dependent thermal stabilisation call
9	MLC1 (UniProt Q15049)	inactive: 0
16	MBNL1 (UniProt Q9NR56)	inactive: 0
